# These are yes or no findings as the source states them, for the method shown. Some results given as binding are weak or reduced against the parent protein; the word gives no strength.
# By UniProt entry, the sequences of proteins in these tests, tags left out. Residues count along the entry.
# UniProt Q9WMX2, residues 384-656: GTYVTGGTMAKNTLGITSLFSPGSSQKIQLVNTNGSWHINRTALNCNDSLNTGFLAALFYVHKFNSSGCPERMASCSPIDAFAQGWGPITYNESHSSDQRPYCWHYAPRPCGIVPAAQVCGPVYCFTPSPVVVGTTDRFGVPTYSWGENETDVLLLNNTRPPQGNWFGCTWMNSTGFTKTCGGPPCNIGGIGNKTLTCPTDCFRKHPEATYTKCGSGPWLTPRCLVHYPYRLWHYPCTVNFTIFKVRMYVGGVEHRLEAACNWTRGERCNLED
# Biological target: T1, native human CD81 on Raji cells (human) (UniProt P60033)
# T1 sequence: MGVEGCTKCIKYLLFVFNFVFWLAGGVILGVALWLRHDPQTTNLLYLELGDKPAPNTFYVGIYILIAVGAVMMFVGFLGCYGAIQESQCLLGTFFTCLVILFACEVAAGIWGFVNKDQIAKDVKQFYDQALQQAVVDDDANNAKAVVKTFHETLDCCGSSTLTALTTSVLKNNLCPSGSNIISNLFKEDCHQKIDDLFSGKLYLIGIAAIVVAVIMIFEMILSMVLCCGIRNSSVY
# Assay: flow cytometry on cells; purified HCV-E2 (4 µg), pre-incubated with 1-400 µM of the small molecule 281816 for 25 min at RT, added to Raji cells for 25 min; detected with mouse anti-E2 H53 and FITC anti-mouse; MFI; only the binder purified
substance,measurement,value
"HCV E2 protein Con1 eE2 (envelope protein 2 ectodomain, amino acids 384-656) (from UniProt Q9WMX2 384-656) (domain or fragment)",binding,binds

# — paper PMC4214736, “Identification of a Novel Drug Lead That Inhibits HCV Infection and Cell-to-Cell Transmission by Targeting the HCV E2 Glycoprotein” (PLoS ONE, 2014)
